Measured values taken from article PMC4628094, “In Vitro Assessment of Uptake and Lysosomal Sequestration of Respiratory Drugs in Alveolar Macrophage Cell Line NR8383” (Pharmaceutical Research, 2015).

Legend:
[1] = tested on: Lung tissue slices from male Sprague-Dawley rats; settings: desipramine, diazepam 5 µM, chloroquine, thiopental 10 µM, 60 min, ref (3), cited from earlier work
[2] = Physicochemical properties, experimental literature values (Table I); settings: classification in Table I

SMILES	Reduction in total uptake (%) ([1]; NH4Cl 20 mM)	Reduction of total uptake (%) ([1]; monensin 10 µM)	Acid–base Property [2]
CN1C(=O)CN=C(c2ccccc2)c2cc(Cl)ccc21 [Diazepam]	2.6%	1.8%	
CC(C)[N+]1(C)[C@@H]2CC[C@H]1C[C@@H](OC(=O)C(CO)c1ccccc1)C2 (stereo partly drawn) [Ipratropium bromide]			Permanently cationic
